# Experimental data reported in the supplement of paper PMC11438910.
# This is one part of the list. Most of these values are background signal.
# B1: 4-80.3 (protein)
# chain 1: QVQLQESGPGLVKPSETLSLTCAVSGGSFSSYWWSWIRQPPGKGLEWIGEINGNSGSTNYNPSLKSRVTISKDASKNQFSLKLSSVTAADTAVYYCARYKNVWGRGVLVTVSS
# chain 2: DVVMTQSPLSLPITPGQPASISCRSSQSLVHSNGNTYLSWYQQKPGQPPRRLIYQVSNRDSGVPDRFSGSGAGTDFTLKISRVEAEDVGVYYCGQGTNVPTFGQGTKVEIK
# Key:
# Assay in all cases: fluorescence intensity of antibody binding to polysaccharide-coupled beads; higher = stronger binding
# [1] = target: pneumococcal polysaccharide Pn33B
# [2] = target: pneumococcal polysaccharide Pn33C
# [3] = target: pneumococcal polysaccharide Pn33D
# [4] = target: pneumococcal polysaccharide Pn33F
# [5] = target: pneumococcal polysaccharide Pn34
# [6] = target: pneumococcal polysaccharide Pn35A
# [7] = target: pneumococcal polysaccharide Pn35B
# [8] = target: pneumococcal polysaccharide Pn35C
# [9] = target: pneumococcal polysaccharide Pn35F
# [10] = target: pneumococcal polysaccharide Pn36
# [11] = target: pneumococcal polysaccharide Pn37
# [12] = target: pneumococcal polysaccharide Pn38
# [13] = target: pneumococcal polysaccharide Pn39
# [14] = target: pneumococcal polysaccharide Pn4
# [15] = target: pneumococcal polysaccharide Pn40
# [16] = target: pneumococcal polysaccharide Pn41A
# [17] = target: pneumococcal polysaccharide Pn41F
# [18] = target: pneumococcal polysaccharide Pn42
# [19] = target: pneumococcal polysaccharide Pn43
# [20] = target: pneumococcal polysaccharide Pn44
# [21] = target: pneumococcal polysaccharide Pn45
# [22] = target: pneumococcal polysaccharide Pn46
# [23] = target: pneumococcal polysaccharide Pn47A
# [24] = antibody concentration 2.8593 ng/mL
# [25] = antibody concentration 15.2894 ng/mL
# [26] = antibody concentration 81.7561 ng/mL
# [27] = antibody concentration 437.17 ng/mL
# [28] = antibody concentration 2337.65 ng/mL
# [29] = antibody concentration 12500 ng/mL
# [30] = antibody concentration 0.1 ng/mL
# [31] = antibody concentration 0.534724 ng/mL
binder,measurement,setting,value
B1,fluorescence intensity,[1]; [24],18.8 MFI
same,fluorescence intensity,[1]; [25],18 MFI
same,fluorescence intensity,[1]; [26],17 MFI
same,fluorescence intensity,[1]; [27],18 MFI
same,fluorescence intensity,[1]; [28],19.5 MFI
same,fluorescence intensity,[1]; [29],32.8 MFI
same,fluorescence intensity,[2]; [30],18.8 MFI
same,fluorescence intensity,[2]; [31],19.8 MFI
same,fluorescence intensity,[2]; [24],20.2 MFI
same,fluorescence intensity,[2]; [25],18.2 MFI
same,fluorescence intensity,[2]; [26],20.5 MFI
same,fluorescence intensity,[2]; [27],21 MFI
same,fluorescence intensity,[2]; [28],35.5 MFI
same,fluorescence intensity,[2]; [29],168 MFI
same,fluorescence intensity,[3]; [30],16.5 MFI
same,fluorescence intensity,[3]; [31],17 MFI
same,fluorescence intensity,[3]; [24],15.2 MFI
same,fluorescence intensity,[3]; [25],16.5 MFI
same,fluorescence intensity,[3]; [26],16 MFI
same,fluorescence intensity,[3]; [27],16.5 MFI
same,fluorescence intensity,[3]; [28],20.2 MFI
same,fluorescence intensity,[3]; [29],54.2 MFI
same,fluorescence intensity,[4]; [30],13.5 MFI
same,fluorescence intensity,[4]; [31],12 MFI
same,fluorescence intensity,[4]; [24],14 MFI
same,fluorescence intensity,[4]; [25],14 MFI
same,fluorescence intensity,[4]; [26],14 MFI
same,fluorescence intensity,[4]; [27],29.8 MFI
same,fluorescence intensity,[4]; [28],124 MFI
same,fluorescence intensity,[4]; [29],818 MFI
same,fluorescence intensity,[5]; [30],12 MFI
same,fluorescence intensity,[5]; [31],14.8 MFI
same,fluorescence intensity,[5]; [24],14.5 MFI
same,fluorescence intensity,[5]; [25],13.8 MFI
same,fluorescence intensity,[5]; [26],13.8 MFI
same,fluorescence intensity,[5]; [27],13.8 MFI
same,fluorescence intensity,[5]; [28],20.5 MFI
same,fluorescence intensity,[5]; [29],46 MFI
same,fluorescence intensity,[6]; [30],19.5 MFI
same,fluorescence intensity,[6]; [31],17 MFI
same,fluorescence intensity,[6]; [24],16 MFI
same,fluorescence intensity,[6]; [25],16.2 MFI
same,fluorescence intensity,[6]; [26],16.5 MFI
same,fluorescence intensity,[6]; [27],19 MFI
same,fluorescence intensity,[6]; [28],50 MFI
same,fluorescence intensity,[6]; [29],364 MFI
same,fluorescence intensity,[7]; [30],19 MFI
same,fluorescence intensity,[7]; [31],18.2 MFI
same,fluorescence intensity,[7]; [24],18 MFI
same,fluorescence intensity,[7]; [25],18 MFI
same,fluorescence intensity,[7]; [26],18 MFI
same,fluorescence intensity,[7]; [27],19 MFI
same,fluorescence intensity,[7]; [28],39.5 MFI
same,fluorescence intensity,[7]; [29],204 MFI
same,fluorescence intensity,[8]; [30],19.5 MFI
same,fluorescence intensity,[8]; [31],21.5 MFI
same,fluorescence intensity,[8]; [24],19.5 MFI
same,fluorescence intensity,[8]; [25],19.5 MFI
same,fluorescence intensity,[8]; [26],20 MFI
same,fluorescence intensity,[8]; [27],20.2 MFI
same,fluorescence intensity,[8]; [28],22 MFI
same,fluorescence intensity,[8]; [29],35.2 MFI
same,fluorescence intensity,[9]; [30],18.2 MFI
same,fluorescence intensity,[9]; [31],20 MFI
same,fluorescence intensity,[9]; [24],17.5 MFI
same,fluorescence intensity,[9]; [25],17 MFI
same,fluorescence intensity,[9]; [26],19.8 MFI
same,fluorescence intensity,[9]; [27],22.2 MFI
same,fluorescence intensity,[9]; [28],23.5 MFI
same,fluorescence intensity,[9]; [29],37.5 MFI
same,fluorescence intensity,[10]; [30],15.8 MFI
same,fluorescence intensity,[10]; [31],17 MFI
same,fluorescence intensity,[10]; [24],16.5 MFI
same,fluorescence intensity,[10]; [25],15.5 MFI
same,fluorescence intensity,[10]; [26],17 MFI
same,fluorescence intensity,[10]; [27],24.5 MFI
same,fluorescence intensity,[10]; [28],75.8 MFI
same,fluorescence intensity,[10]; [29],492 MFI
same,fluorescence intensity,[11]; [30],24.5 MFI
same,fluorescence intensity,[11]; [31],26 MFI
same,fluorescence intensity,[11]; [24],27 MFI
same,fluorescence intensity,[11]; [25],26.2 MFI
same,fluorescence intensity,[11]; [26],29.5 MFI
same,fluorescence intensity,[11]; [27],58 MFI
same,fluorescence intensity,[11]; [28],282 MFI
same,fluorescence intensity,[11]; [29],1350 MFI
same,fluorescence intensity,[12]; [30],26.2 MFI
same,fluorescence intensity,[12]; [31],24.5 MFI
same,fluorescence intensity,[12]; [24],26.5 MFI
same,fluorescence intensity,[12]; [25],26 MFI
same,fluorescence intensity,[12]; [26],26 MFI
same,fluorescence intensity,[12]; [27],29 MFI
same,fluorescence intensity,[12]; [28],33.2 MFI
same,fluorescence intensity,[12]; [29],75.5 MFI
same,fluorescence intensity,[13]; [30],19 MFI
same,fluorescence intensity,[13]; [31],18.8 MFI
same,fluorescence intensity,[13]; [24],17.2 MFI
same,fluorescence intensity,[13]; [25],16.5 MFI
same,fluorescence intensity,[13]; [26],18 MFI
same,fluorescence intensity,[13]; [27],17.5 MFI
same,fluorescence intensity,[13]; [28],38 MFI
same,fluorescence intensity,[13]; [29],216 MFI
same,fluorescence intensity,[14]; [30],17.5 MFI
same,fluorescence intensity,[14]; [31],18 MFI
same,fluorescence intensity,[14]; [24],18 MFI
same,fluorescence intensity,[14]; [25],18.5 MFI
same,fluorescence intensity,[14]; [26],20 MFI
same,fluorescence intensity,[14]; [27],24.5 MFI
same,fluorescence intensity,[14]; [28],37.2 MFI
same,fluorescence intensity,[14]; [29],108 MFI
same,fluorescence intensity,[15]; [30],16.5 MFI
same,fluorescence intensity,[15]; [31],15 MFI
same,fluorescence intensity,[15]; [24],17 MFI
same,fluorescence intensity,[15]; [25],16.8 MFI
same,fluorescence intensity,[15]; [26],17.5 MFI
same,fluorescence intensity,[15]; [27],28.5 MFI
same,fluorescence intensity,[15]; [28],96.5 MFI
same,fluorescence intensity,[15]; [29],617 MFI
same,fluorescence intensity,[16]; [30],23.2 MFI
same,fluorescence intensity,[16]; [31],23.5 MFI
same,fluorescence intensity,[16]; [24],23 MFI
same,fluorescence intensity,[16]; [25],23 MFI
same,fluorescence intensity,[16]; [26],25.5 MFI
same,fluorescence intensity,[16]; [27],27 MFI
same,fluorescence intensity,[16]; [28],29.5 MFI
same,fluorescence intensity,[16]; [29],47.2 MFI
same,fluorescence intensity,[17]; [30],11.5 MFI
same,fluorescence intensity,[17]; [31],13.5 MFI
same,fluorescence intensity,[17]; [24],13 MFI
same,fluorescence intensity,[17]; [25],12.5 MFI
same,fluorescence intensity,[17]; [26],12 MFI
same,fluorescence intensity,[17]; [27],14.2 MFI
same,fluorescence intensity,[17]; [28],20.8 MFI
same,fluorescence intensity,[17]; [29],61 MFI
same,fluorescence intensity,[18]; [30],11.5 MFI
same,fluorescence intensity,[18]; [31],12 MFI
same,fluorescence intensity,[18]; [24],12 MFI
same,fluorescence intensity,[18]; [25],12.5 MFI
same,fluorescence intensity,[18]; [26],13.5 MFI
same,fluorescence intensity,[18]; [27],17 MFI
same,fluorescence intensity,[18]; [28],38 MFI
same,fluorescence intensity,[18]; [29],217 MFI
same,fluorescence intensity,[19]; [30],15 MFI
same,fluorescence intensity,[19]; [31],14.5 MFI
same,fluorescence intensity,[19]; [24],16 MFI
same,fluorescence intensity,[19]; [25],17.2 MFI
same,fluorescence intensity,[19]; [26],16.5 MFI
same,fluorescence intensity,[19]; [27],32.5 MFI
same,fluorescence intensity,[19]; [28],160 MFI
same,fluorescence intensity,[19]; [29],1050 MFI
same,fluorescence intensity,[20]; [30],24.5 MFI
same,fluorescence intensity,[20]; [31],26 MFI
same,fluorescence intensity,[20]; [24],24.5 MFI
same,fluorescence intensity,[20]; [25],25.5 MFI
same,fluorescence intensity,[20]; [26],26.2 MFI
same,fluorescence intensity,[20]; [27],27.5 MFI
same,fluorescence intensity,[20]; [28],33.5 MFI
same,fluorescence intensity,[20]; [29],64.8 MFI
same,fluorescence intensity,[21]; [30],11 MFI
same,fluorescence intensity,[21]; [31],10 MFI
same,fluorescence intensity,[21]; [24],10.8 MFI
same,fluorescence intensity,[21]; [25],9.75 MFI
same,fluorescence intensity,[21]; [26],10.5 MFI
same,fluorescence intensity,[21]; [27],12.2 MFI
same,fluorescence intensity,[21]; [28],16.5 MFI
same,fluorescence intensity,[21]; [29],37 MFI
same,fluorescence intensity,[22]; [30],22 MFI
same,fluorescence intensity,[22]; [31],24.8 MFI
same,fluorescence intensity,[22]; [24],24 MFI
same,fluorescence intensity,[22]; [25],25 MFI
same,fluorescence intensity,[22]; [26],26 MFI
same,fluorescence intensity,[22]; [27],31 MFI
same,fluorescence intensity,[22]; [28],71.8 MFI
same,fluorescence intensity,[22]; [29],372 MFI
same,fluorescence intensity,[23]; [30],16.5 MFI
same,fluorescence intensity,[23]; [31],16.5 MFI
same,fluorescence intensity,[23]; [24],14.2 MFI
same,fluorescence intensity,[23]; [25],15.5 MFI
same,fluorescence intensity,[23]; [26],15.5 MFI
same,fluorescence intensity,[23]; [27],17.2 MFI

# Reprinted from the results shown for reference:
binder,measurement,setting,value
B1,fluorescence intensity,[22]; [29],372 MFI
same,fluorescence intensity,[23]; [30],16.5 MFI

# Quoted at random: six entries already listed
binder,measurement,setting,value
B1,fluorescence intensity,[11]; [24],27 MFI
same,fluorescence intensity,[20]; [25],25.5 MFI
same,fluorescence intensity,[6]; [30],19.5 MFI
same,fluorescence intensity,[12]; [26],26 MFI
same,fluorescence intensity,[21]; [31],10 MFI
same,fluorescence intensity,[22]; [31],24.8 MFI

# In a second layout: entries from further up
binder | measurement | setting | value
B1 | fluorescence intensity | [19]; [29] | 1050 MFI
same | fluorescence intensity | [20]; [30] | 24.5 MFI
